# Experimental data from the supplement of paper PMC7824004.
# Some of the results follow. The data scatter; read single values as rough.
# System: Candida albicans SN425
# Assay: biofilm OD600 B-score; higher = more biofilm (less inhibition)
# Settings: 10 µM; assay detail: High-throughput adherence inhibition optical density biofilm assay with C. albicans SN425 in RPMI-1640/MOPS pH 7.0, 384-well plates. …
# Procedure: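 High-throughput adherence inhibition optical density biofilm assay with C. albicans SN425 in RPMI-1640/MOPS pH 7.0, 384-well plates. Compound (10 µM) was present only during the 90 min adherence step, then washed out, and the biofilm grew 24 h without compound. Biofilm was read as OD600 after removing the media. Scores are the difference from the mean in standard deviations and the plate B-score.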
row,Compound,biofilm OD600 B-score
1,COc1ccc(Cl)cc1S(=O)(=O)Nc1ccccc1C(=O)O,-1.17
2,CN1CCN(C(=O)C2CC=CCC2C(=O)O)CC1 (stereo not given),-0.258
3,O=C(CCc1ccccc1)Nc1nn[nH]n1,-1.16
4,NC12CC3CC(C1)CC(O)(C3)C2,0.552
5,O=[N+]([O-])c1ccc(N2CCOCC2)c(F)c1,0.0107
6,O=C(NC(c1ccccc1)c1ccccc1)c1ccoc1,0.167
7,CCOc1ccccc1NS(=O)(=O)c1ccc(SC)cc1,0.361
8,Cc1ccc(OCC(O)CN2CCCC2)cc1C (stereo not given),-5.11
9,CCCSc1nc(O)cc(=O)n1C,0.173
10,Nc1ccc(S(=O)(=O)Nc2nccs2)cc1,-0.747
11,Cc1cc(C)nc(NC(=O)C2C3C=CC(C3)C2C(=O)O)c1 (stereo not given),0.206
12,O=C(Nc1ccc(Cl)c(Cl)c1)c1cnccn1,-0.809
13,Cc1onc(-c2c(F)cccc2Cl)c1C(=O)N1CCOCC1,-2.28
14,Cc1onc(-c2ccccc2)c1C(=O)Nc1cccnc1,-1.62
15,COc1c(S(=O)(=O)NCc2ccncc2)ccc(Cl)c1Cl,-1.04
16,Cc1cc(C)nc(SCCN2CCCC2)n1,-0.0262
17,O=[N+]([O-])c1ccc(N2CCN(Cc3cccnc3)CC2)cc1,0.368
18,O=C(CSc1ccccn1)c1ccc2c(c1)OCO2,-1.84
19,CCCc1nc2ccccc2c(=O)n1N,2.81
20,Cc1ncn(C23CC4CC(CC(C4)C2)C3)n1,0.735

row,Compound,biofilm OD600 B-score
1,COCCNS(=O)(=O)c1cc(C)c(C)cc1OC,2.54
2,O=C(NCc1ccco1)Nc1ccc2snnc2c1,-0.303
3,CC(C)N(CCC#N)S(=O)(=O)c1ccccc1,-0.0295
4,Cc1nn(C(=O)N2CCOCC2)c(C)c1Br,-0.696
5,COc1cc(OC)cc(C(=O)Nc2ccccc2NC(C)=O)c1,-1.25
6,CCSc1sc(CC)cc1C(N)=O,-0.269
7,O=C(c1cccs1)N1CCN(c2ncccn2)CC1,-1.18
8,CCN(CC)C(=O)C1CCCN(Cc2cccc(C)c2)C1 (stereo not given),-0.816
9,O=S(=O)(Cc1ccccc1)NCc1cccnc1,0.41
10,CCN(CC)c1ccc(CN2CCSCC2)cc1,-0.305
11,Cc1ccc(C)c(S(=O)(=O)Nc2ccccc2Cl)c1,2.74
12,OC(C#CCN1CCOCC1)c1ccccc1 (stereo not given),1.34
13,COc1ccc(NC(=O)Cc2nnc(NC(=O)Nc3ccc(C)cc3)s2)cc1,-0.935
14,Cc1cccc(OCCCn2ccnc2)c1C,0.0794
15,Cc1ccc(NC(=O)c2ccc(NCCN)c([N+](=O)[O-])c2)cc1,-0.503
16,CCc1ccc(OCCN2CCOCC2)cc1,1.91
17,COc1cc(Cl)c(S(=O)(=O)NCc2cccnc2)cc1Cl,-2.15
18,CC(=O)Nc1ccc(Cl)c(C(N)=O)c1,-0.672
19,O=C(NCc1cccnc1)c1cc2ccccc2o1,-0.0176
20,Cc1ccsc1CN(C)C1CCN(C)CC1,0.456

# No new results follow: 3 of the compounds above.
row,Compound,biofilm OD600 B-score
6,CCSc1sc(CC)cc1C(N)=O,-0.269
7,O=C(c1cccs1)N1CCN(c2ncccn2)CC1,-1.18
8,CCN(CC)C(=O)C1CCCN(Cc2cccc(C)c2)C1 (stereo not given),-0.816
